Measured values as given in publication PMC5552742.
No constants are given. Whether binding was seen depends on the method and setting. Some results given as binding are weak or reduced against the parent protein; the word gives no strength.

Protein sequences, listed by entry. Tags and fused reporters are not part of them.
UniProt P00169: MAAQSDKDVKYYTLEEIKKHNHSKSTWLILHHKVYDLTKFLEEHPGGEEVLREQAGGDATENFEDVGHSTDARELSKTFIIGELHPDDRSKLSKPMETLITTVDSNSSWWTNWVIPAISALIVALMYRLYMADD
UniProt P00004: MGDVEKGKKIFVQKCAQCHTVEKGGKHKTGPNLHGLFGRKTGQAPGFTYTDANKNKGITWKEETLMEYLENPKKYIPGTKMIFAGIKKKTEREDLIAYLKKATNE

Tests used:
[1] = target: full-length rabbit cytochrome b5 (rabbit) (UniProt P00169); assay: NMR titration; unlabeled cyt c titrated into 0.1 mM 15N-cytb5 in lipid-free buffer (10 mM potassium phosphate, pH 7.4); 2D 15N/1H TROSY-HSQC, 298 K; both proteins ferric; both purified
[2] = target: full-length rabbit cytochrome b5 (rabbit) (UniProt P00169); assay: NMR titration; unlabeled cyt c titrated into about 0.1 mM 15N-cytb5 in 4F-DMPC nanodiscs (10 mM potassium phosphate, pH 7.4); 2D 15N/1H TROSY-HSQC, 298 K; both proteins ferric; both purified
[3] = target: full-length rabbit cytochrome b5 (rabbit) (UniProt P00169); assay: NMR titration; unlabeled cyt c titrated into 15N-cytb5 in DMPC/DHPC isotropic bicelles; 2D 15N/1H TROSY-HSQC, 298 K; both proteins ferric; both purified

- binding [1]: binds weakly
- binding [2]: binds weakly
- binding [3]: binds weakly
Substance: equine cytochrome c (from UniProt P00004 1-105)
